Laboratory results taken from patent publication US11110105B2, “Compounds, composition and uses thereof for treating cancer” (INSTITUT GUSTAVE ROUSSY, priority 2017, dated 2021).
Entries after “also recorded” stand apart in the source; their conditions may differ. At least one compound was matched to its structure with a doubt left.

Key:
[1] = tested on: mouse melanoma cell line B16F10; test: B3Z SL8-specific T-cell activation assay, B16F10; format: cell-based; conditions: 15 μM or 25 μM, 18 hours; for exon-derived SL8 antigen presentation (B3Z activation): B16F10, Globin-SL8-exon; for intron-derived SL8 antigen presentation (B3Z activation): B16F10, Globin-SL8-intron, isoginkgetin 6,25 μM
Protocol: B3Z SL8-specific T-cell activation after co-culture with (A) human melanoma A375, human lung carcinoma A549 or normal human lung fibroblast MRC5 cell lines, all transiently expressing the intron-derived SL8 peptide and the H2-K^b molecules and treated upstream with 2,5 μM or 6,25 μM isoginkgetin for 18 hours; or with (B) mouse sarcoma MCA205 or mouse melanoma B16F10 cell lines both transiently expressing the intron-derived SL8 peptide and treated upstream with 6,25 μM, 15 μM or 25 μM isoginkgetin for 18 hours. B3Z activation after co-culture with MCA205 or B16F10 cells that both transiently express (C) the exon-derived SL8 peptides or (D) the Ova cDNA construct, which doesn't need to be spliced, treated upstream with 6,25 μM, 15 μM or 25 μM isoginkgetin for 18 hours. Free SL8 peptides were added in each condition to ensure that T-cell assays were carried out at non-saturated conditions and that the expression of MHC-I molecules was taking into account in the results. Each graph is one representative of at least four independent experiments.
Data are given as mean ±SEM. *P<0.05, **P<0.01, ***P<0.001 (unpaired student t test). […] Tumor size was assessed every 3 to 4 days until reaching the established ethical endpoints. Each line represents the tumor size in area (mm^2) of at least 6 mice in each group. Data are given as mean ±SEM. *p<0.05, **p<0.01 (ANOVA with Tukey's multiple comparison test comparing all groups). […] A Log-rank (Mantel-Cox) test was performed.
MCA205 and B16F10 mouse cell lines are transfected with the plasmid YFP-Globin-SL8-intron or with the PCDNA3 empty plasmid (negative control) with the transfection reagent jetPRIME (Ozyme) or GeneJuice (Millipore) respectively according to each manufacturer protocol. A375, A549 and MRC5 human cell lines are transfected with the plasmid encoding mouse H2-Kb molecule for 12 hours followed by the transfection of the plasmid YFP-Globin-SL8-intron with the transfection reagent jetPRIME (Ozyme) according to the manufacturer protocol. […] Then cells are washed three times with PBS 1X and 5×10^4 cells are co-cultured with 1×10^5 B3Z cells. In positive control wells, 4 μg/ml of synthetic peptide SL8 is added. Cells are then incubated at 37° C. with 5% CO2 overnight. Cells are centrifuged at 1200 rpm for 5 min, washed twice with PBS 1X and lysed for 5 min at 4° C. under shaking with the following lysis buffer: 0.2% TritonX-100, 0.2% DTT, 0.5M K2HPO4, 0.5M KH2PO4. The lysate is centrifuged at 3000rpm for 10min and the supernatant is transferred to a 96-well optiplate (Packard Bioscience, Randburg, SA). The revelation buffer containing 33 mM of methylumbellifery β-D-galactopyranoside (MUG) is added and the plate is incubated at room temperature for 3 hours. Finally, the β-galactosidase activity is measured using the FLUOstar OPTIMA (BMG LABTECH Gmbh, Offenburg, Germany). Results are expressed as mean ±SEM. *P<0.05, **P<0.01, ***P<0.001 (unpaired student t test).

[2] = tested on: H2-K^b molecules at the cell surface of B16F10 cells; test: Flow cytometry of H2-K^b expression, B16F10; format: cell-based, mouse
Text: Flow cytometry analyses of H2-K^b expression on MCA205 and B16F10 cells treated with (A) isoginkgetin. Flow cytometry analyses of transiently expressed H2-K^b expression on A375, A549 and MRC5 cells treated with (B) isoginkgetin.

COc1ccc(-c2cc(=O)c3c(O)cc(O)c(-c4cc(-c5cc(=O)c6c(O)cc(O)cc6o5)ccc4OC)c3o2)cc1 [Isoginkgetin, isoginkgetin]
exon-derived SL8 antigen presentation (B3Z activation) ([1]; 6,25 μM): causes an increase in exon and intron-PTPs-dependent antigen presentation
exon-derived SL8 antigen presentation (B3Z activation) ([1]; 6,25 μM, listed as isoginkgetin): increases exon-derived-SL8 antigen presentation
intron-derived SL8 antigen presentation (B3Z activation) [1]: elicits an increase in the PTPs-dependent antigen presentation, with a dose dependent effect; also recorded: causes an increase in exon and intron-PTPs-dependent antigen presentation
intron-derived SL8 antigen presentation (B3Z activation) ([1]; listed as isoginkgetin): elicits an increase in the intron-derived-SL8 antigen presentation, in a dose dependent manner
production of the SL8 epitope encoded by the Ova cDNA construct (B3Z activation) ([1]; B16F10, Ova cDNA (no splicing needed), 6,25 μM): has no effect on the production of the SL8 epitope encoded by the Ova cDNA construct
expression of the H2-K^b molecules at the cell surface [2]: increases
